Screen size: about 24,000 compounds; fewer than 10 were called active. The shares of active, inactive and inconclusive entries below differ from those in the screen.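 The calls were made as follows: active = fluorescent ligand binding to cells raised by more than 40% of the manganese-induced maximum; inconclusive = compound's own fluorescence above 85% of the ligand control signal; inactive = the rest.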
Target: Integrin alpha-4 (Homo sapiens) (UniProt P13612)
Experiment: enhancers of LDV-FITC binding to VLA-4 integrin, primary screen, Jurkat cells, flow cytometry (AID 528);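 as to activation: 0% = ligand binding without compound and 100% = manganese-stimulated maximal binding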
Conditions: stronger effect = higher value, screened at 10 µM (by protocol)

Chains of the proteins cited; added tags and fusions are not shown.
UniProt P13612, whole entry, looked up: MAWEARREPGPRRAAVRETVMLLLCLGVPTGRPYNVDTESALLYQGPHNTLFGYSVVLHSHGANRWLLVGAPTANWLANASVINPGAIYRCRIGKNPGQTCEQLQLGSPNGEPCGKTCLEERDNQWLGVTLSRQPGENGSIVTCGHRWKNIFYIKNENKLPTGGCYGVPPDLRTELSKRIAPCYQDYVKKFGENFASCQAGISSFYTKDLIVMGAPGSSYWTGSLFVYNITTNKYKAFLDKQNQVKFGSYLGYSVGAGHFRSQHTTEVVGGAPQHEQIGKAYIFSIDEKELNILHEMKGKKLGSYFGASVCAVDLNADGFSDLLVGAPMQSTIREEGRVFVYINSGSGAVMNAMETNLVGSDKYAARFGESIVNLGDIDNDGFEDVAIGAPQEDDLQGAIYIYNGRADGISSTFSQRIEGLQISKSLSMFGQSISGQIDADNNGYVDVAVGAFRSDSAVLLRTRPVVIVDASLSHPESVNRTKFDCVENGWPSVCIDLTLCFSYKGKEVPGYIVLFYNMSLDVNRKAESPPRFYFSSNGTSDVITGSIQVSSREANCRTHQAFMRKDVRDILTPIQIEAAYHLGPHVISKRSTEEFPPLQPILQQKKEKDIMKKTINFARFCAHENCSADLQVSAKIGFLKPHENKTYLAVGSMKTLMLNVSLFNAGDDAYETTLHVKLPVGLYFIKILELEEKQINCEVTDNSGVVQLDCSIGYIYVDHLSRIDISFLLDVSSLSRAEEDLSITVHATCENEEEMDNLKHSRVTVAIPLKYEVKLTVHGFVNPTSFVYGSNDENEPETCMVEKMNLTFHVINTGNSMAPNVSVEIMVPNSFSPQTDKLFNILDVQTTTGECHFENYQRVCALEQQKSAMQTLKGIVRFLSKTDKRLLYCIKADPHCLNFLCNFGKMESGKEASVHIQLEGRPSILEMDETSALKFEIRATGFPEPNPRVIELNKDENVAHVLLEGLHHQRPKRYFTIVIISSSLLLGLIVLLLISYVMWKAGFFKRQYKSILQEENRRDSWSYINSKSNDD

| SMILES | activation |
| --- | --- |
| c1ccc(-c2nc(Sc3ncnc4c3cnn4-c3ccccc3)n[nH]2)cc1 | inconclusive |
| COc1ccc(Cn2nnc3c(=O)[nH]c(C(=O)NCCc4ccc(F)cc4)nc32)cc1OC | inactive: -8% |
| Cn1nc(-c2ccc(Cl)cc2)c2cc(C(=O)N3CCN(c4ccccn4)CC3)sc21 | inconclusive |
| O=C(c1ccc(Cl)cc1Cl)N1CCC(c2nc3c(nnn3Cc3ccco3)c(=O)[nH]2)CC1 | inconclusive |
| Cc1ccsc1C1C2=C(CC(C)(C)CC2=O)Nc2ncnn21 (stereo not drawn) | inactive: 15% |
| CCOC(=O)N1CCC(Nc2c(Nc3cccc(CC)c3)c(=O)c2=O)CC1 | inconclusive |
| Cn1cccc1C1(C(F)(F)F)NCCNC1=O (stereo not drawn) | inactive: 1% |
| CCSc1nc2c(c(=O)n1Cc1ccccc1)SC(C)C2 (stereo not drawn) | inconclusive |
| COc1ccccc1NC(=O)C1CCCN(S(=O)(=O)c2cccc3nsnc23)C1 (stereo not drawn) | inconclusive |
| Cc1ccc2[nH]c3c(NCc4ccco4)ncnc3c2c1 | inconclusive |
| COc1ccc(C)cc1NC(=O)c1nnn(Cc2cc(C)ccc2C)c1N | inconclusive |
| Cc1cccc(NC(=O)C2CCCN(S(=O)(=O)c3cccc4cccnc34)C2)c1 (stereo not drawn) | inactive: -5% |
| O=C(Cn1c(-c2cncs2)nc2ccccc21)NC1CCCC1 | inconclusive |
| CCOC(=O)CSc1nc2ccc(N3CCOCC3)cc2c(=O)n1Cc1ccc2c(c1)OCO2 | inactive: -4% |
| Cc1ccc(CNC(=O)c2cc3c(-c4ccc(Cl)cc4)nn(C)c3s2)o1 | inconclusive |
| COc1ccccc1N1CCN(C(=O)c2ccc3c(=O)n(Cc4ccco4)c(=S)[nH]c3c2)CC1 | inconclusive |
| CCOc1ccc(S(=O)(=O)Nc2ccc3c(c2)OCO3)c2cccnc12 | inconclusive |
| CCOC(=O)N1CCC(Nc2cc(C)nc3c(-c4ccccc4OC)c(C)nn23)CC1 | inactive: 2% |
| CN1c2cccc3cccc(c23)N(C)C1(C)C | inconclusive |
| Cn1c(=O)cc(SCC(=O)N2CCN(C3CCCCC3)CC2)c2ccccc21 | inconclusive |
| CN(C)c1ccc2c(c1)OC(N)=C(C#N)C2c1cccc(F)c1 (stereo not drawn) | inconclusive |
| COc1ccc(-c2ccc(=O)n(Cc3cc(=O)n4ccccc4n3)n2)cc1 | inconclusive |
| Cc1nc2sc(C(c3ccc(Cl)cc3)N3CCN(c4ccccc4F)CC3)c(O)n2n1 (stereo not drawn) | inconclusive |
| Nc1ccc(CN2CCN(c3ccc4ccccc4n3)CC2)cc1 | inactive: 4% |
| Cc1ccc(Cn2nnc3c(=O)[nH]c(C4CCN(S(=O)(=O)c5cc(C)ccc5C)CC4)nc32)cc1 | inconclusive |

Rewritten bar-delimited: part of the list above.
SMILES | activation
Cc1ccsc1C1C2=C(CC(C)(C)CC2=O)Nc2ncnn21 (stereo not drawn) | inactive: 15%
CCOC(=O)N1CCC(Nc2c(Nc3cccc(CC)c3)c(=O)c2=O)CC1 | inconclusive
Cn1cccc1C1(C(F)(F)F)NCCNC1=O (stereo not drawn) | inactive: 1%
CCSc1nc2c(c(=O)n1Cc1ccccc1)SC(C)C2 (stereo not drawn) | inconclusive

Going on with the list:

| SMILES | activation |
| --- | --- |
| CCOC(=O)C1=C(C)Nc2nc(SCC)[nH]c(=O)c2C1c1ccncc1 (stereo not drawn) | inactive: 7% |
| O=C(NCc1ccc2c(c1)OCO2)C1CCCN(S(=O)(=O)c2cccc3nonc23)C1 (stereo not drawn) | inconclusive |
| CCOC(=O)c1c(C)c(C(=O)N(C)C2CCCCC2)c(C)n1C | inactive: -4% |
| COc1cccc(C2C(C(=O)Nc3cccnc3)=C(C)Nc3nnnn32)c1OC (stereo not drawn) | inconclusive |
| CCN(CCCNS(=O)(=O)c1ccc2c(c1)CCN2C(C)=O)c1cccc(C)c1 | inactive: 9% |
| CCOC(=O)C1CCCN(c2c(N3CCN(c4cccc(Cl)c4)CC3)c(=O)c2=O)C1 (stereo not drawn) | inconclusive |
| O=C(CSc1nnc(Cn2c(=O)sc3ccccc32)n1-c1ccccc1)N1CCCCCC1 | inconclusive |
| Cc1c2cnn(-c3ccccc3)c(=O)c2c(C)n1CCCC(=O)N1CCN(C)CC1 | inconclusive |
| CCCOc1ccc2oc(=O)c3c(c2c1)CCCN3C(=O)CN1CCc2ccccc2C1 | inconclusive |
| O=C(O)CN1C(=O)CNC1=O | inconclusive |
| COc1ccc(C2C(C(=O)O)CC(=O)N2c2ccc(OC)cc2)cc1 (stereo not drawn) | inconclusive |
| Cc1cc(NC(=O)c2ccc(S(=O)(=O)N3CCCC3)cc2)nc2c1c(=O)oc1ccccc12 | inconclusive |
| Cc1cc(Nc2ccc(F)cc2F)n2nc(C)nc2n1 | inconclusive |
| O=C1CC2(CCCCC2)Oc2ccc(O)cc21 | inconclusive |
| Cc1ccc(CCNC(=O)c2nnn(-c3cc(C)cc(C)c3)c2N)cc1 | inconclusive |
| CC(=O)N1CCc2cc(S(=O)(=O)NCCC3=CCCCC3)ccc21 | inactive: 9% |
| COC(=O)c1cc2sccc2n1CC(=O)Nc1cc(OC)cc(OC)c1 | inconclusive |
| O=c1c2cccnc2[nH]c(=S)n1CCCN1CCN(c2ccc(F)cc2)CC1 | inconclusive |
| CCN(CC)S(=O)(=O)c1ccc(-c2nnc3sc4cccc(C)c4n23)cc1 | inconclusive |
| CN(CCNC(=O)C1CC(=O)N(C2CCCC2)C1)Cc1ccccc1 (stereo not drawn) | inactive: 4% |
| CCCCCc1nc2c(=O)[nH]c3ccccc3c2o1 | inconclusive |
| COc1ccccc1CCNC(=O)c1cnn2c(C(F)F)cc(C)nc12 | inconclusive |
| O=C(NCc1ccco1)C1CCN(c2nc3ccccc3n2Cc2ccc(F)cc2)CC1 | inconclusive |
| CC1CCCCN1S(=O)(=O)c1ccc2c(c1)oc(=O)n2CC(=O)O (stereo not drawn) | inconclusive |
| CCOC(=O)N1CCN(C(=O)CSCC(=O)Nc2nc(-c3ccccc3)cs2)CC1 | inconclusive |

| SMILES | activation |
| --- | --- |
| Cc1nc2ncnn2c(N2CCC(C(=O)NC3CCCC3)CC2)c1Cc1ccccc1 | inconclusive |
| C=CCn1c2ccccc2c2nnc(SCC(=O)NC(C(=O)OC)C(C)C)nc21 (stereo not drawn) | inactive: -2.7% |
| Cc1ccc(-c2noc(CCC(=O)Nc3cc(C)ccn3)n2)cc1 | inconclusive |
| CC(C)(C)NC(=O)Cn1nnc(-c2ccccc2Cl)n1 | inconclusive |
| COc1ccc(OCc2nnc3n2N=C(c2ccc(C)cc2)CS3)cc1 | inconclusive |
| O=C(CN1C(=O)c2ccccc2C1=O)Nc1ccccc1C(=O)N1CCCC1 | inactive: 0.5% |
| CC(C)C(CO)NC(=O)CC(=O)NC(CO)C(C)C (stereo not drawn) | inactive: -1% |
| Cc1ccc(NC(=O)CC2Oc3ccccc3NC2=O)c(C)c1 (stereo not drawn) | inconclusive |
| CCCCN(C)C(=O)c1sc2ncn(CC)c(=O)c2c1C | inconclusive |
| COc1ccc(Cn2c(=O)[nH]c3cc(C(=O)N4CCN(Cc5ccccc5)CC4)ccc3c2=O)cc1 | inconclusive |
| O=C(NCc1ccco1)c1ccc2c(=O)n(Cc3ccco3)c(SCC(=O)N3CCCC3)nc2c1 | inactive: 1% |
| CCOC(=O)C1CCN(S(=O)(=O)c2c(C)n[nH]c2C)CC1 | inactive: 5% |
| O=C1CCCC(O)=C1C(C#Cc1ccccc1)C1=C(O)CCCC1=O | inactive: -1% |
| CC(=O)Nc1sc2c(c1C#N)CCCCC2 | inactive: 3% |
| CCCS(=O)(=O)N1CCC(C(=O)NCCN(C)Cc2ccccc2)CC1 | inactive: 5% |
| CCn1c(=O)cc(OCC(=O)N2CCN(c3cccc(C(F)(F)F)c3)CC2)c2ccccc21 | inconclusive |
| Brc1ccc(-c2nnc3sc(CN4CCN(c5ccccc5)CC4)cn23)cc1 | inconclusive |
| CCCCC(=O)Nc1cc(C)c2c(=O)oc3ccccc3c2n1 | inconclusive |
| Cc1ccc(NC(=O)c2nnn(-c3cc(C)cc(C)c3)c2N)cc1 | inconclusive |
| COC(=O)c1[nH]c2ccc(C)cc2c1NC(=O)CN1CCCc2ccccc21 | inconclusive |
| N#Cc1cc2ccc(N3CCOCC3)cc2cc1C#N | inconclusive |
| Cc1cc(Nc2cccc(Cl)c2C)n2ncnc2n1 | inconclusive |
| CC1(C)CC2CC(C)(CN2C(=O)c2cc(-c3ccccc3O)on2)C1 (stereo not drawn) | inconclusive |
| CCOC(=O)C(C)Sc1ccc2nnc(-c3ccc(F)cc3)n2n1 (stereo not drawn) | inconclusive |
| O=C(NCC(c1cccnc1)N1CCN(c2ccccc2F)CC1)c1cccc(Cl)c1 (stereo not drawn) | inactive: -11% |

| SMILES | activation |
| --- | --- |
| CC(=O)NC1(C(F)(F)F)NC(=O)N(CC(C)C)C1=O (stereo not drawn) | inconclusive |
| COc1cccc2c1OC1(C)CC2NC(=O)N1c1cccc(C(=O)Nc2ccc3c(c2)OCCO3)c1 (stereo not drawn) | inactive: 1% |
| Cc1nc(C)c(C(=O)Nc2nc3c(C)cccc3s2)o1 | inconclusive |
| CCC(C)NC(=O)C1c2ccccc2C(=O)N1Cc1cc(OC)ccc1OC (stereo not drawn) | inconclusive |
| CC(=O)NCCn1c(SCc2cc(=O)n3cc(Cl)ccc3n2)nc2ccccc2c1=O | inactive: 8% |
| C1=C(c2ccccc2)CCN(c2nc3ccccc3n3cnnc23)C1 | inconclusive |
| O=C1CCNc2cc3ccccc3cc21 | inconclusive |
| Fc1ccc(CNc2nc(-c3ccco3)cc(C(F)(F)F)n2)cc1 | inconclusive |
| Cc1ccc(NC(=O)Cn2c(C)cc(C)c(C#N)c2=O)c(Cl)c1 | inactive: 6% |
| Cn1cc(CC(=O)Nc2cccc(C#N)c2)c2ccccc21 | inactive: -2% |
| CC(=O)C1C(c2ccncc2)NC(=O)NC1(O)C(F)(F)F (stereo not drawn) | inconclusive |
| Cc1cc(C)c2c(n1)nn1c(C3CC3)cc(C(F)(F)F)nc21 | inconclusive |
| CC1CCN(CCCNC(=O)Cc2c(C(=O)O)n(C)c3ccccc23)CC1 | inconclusive |
| Cc1[nH]c2ccc(-c3nnc(SCC(=O)NCc4ccco4)n3Cc3ccccc3)cc2c1C | inconclusive |
| CC1Cc2nc(SCC(=O)NCC3CCCO3)n(Cc3ccccc3)c(=O)c2S1 (stereo not drawn) | inconclusive |
| COc1cc2[nH]c(=O)n(CCC(=O)N3CCN(c4cc(Cl)ccc4C)CC3)c(=O)c2cc1OC | inconclusive |
| COc1cccc2sc(Nc3nc(-c4ccccn4)cs3)nc12 | inconclusive |
| CCOC(=O)N1CCC(NC(=O)CS(=O)(=O)Cc2nc(-c3ccc(C)cc3)oc2C)CC1 | inconclusive |
| CCc1c(C)sc(NC(=O)c2cc(-c3ccco3)on2)c1C#N | inactive: 5% |
| O=C(NCC1CCCO1)c1ccc2c(=O)n(CCc3ccccc3)c(=O)[nH]c2c1 (stereo not drawn) | inconclusive |
| Cc1cccc(N2CCN(C(=O)C3CCN(S(=O)(=O)c4cccc5cccnc45)CC3)CC2C)c1 (stereo not drawn) | inconclusive |
| O=C(C1CC1)N1CCN=C1SCc1cccc(C(F)(F)F)c1 | inconclusive |
| CCOc1ccccc1NC(=O)c1nc[nH]c1C(=O)Nc1ccccc1OCC | inactive: 12% |

— PubChem BioAssay AID528 (NMMLSC, 2006)
